These are yes or no findings as the source states them, for the method shown. Binding seen in cells or lysates may run through a third protein.
Biological target: FLAG-53BP1 ΔMFF (human) (UniProt Q12888)
Assay: co-IP; FLAG-53BP1 WT, ΔMFF or IEDI_AAAA transfected in HEK293T, MLN4924 3 h; immunoprecipitation and blot for GMCL1

Protein sequences, listed by entry. Tags and fused reporters are not part of them. Lines headed by an entry give the natural chain unless they say otherwise; changes in a name come on top.
UniProt Q12888: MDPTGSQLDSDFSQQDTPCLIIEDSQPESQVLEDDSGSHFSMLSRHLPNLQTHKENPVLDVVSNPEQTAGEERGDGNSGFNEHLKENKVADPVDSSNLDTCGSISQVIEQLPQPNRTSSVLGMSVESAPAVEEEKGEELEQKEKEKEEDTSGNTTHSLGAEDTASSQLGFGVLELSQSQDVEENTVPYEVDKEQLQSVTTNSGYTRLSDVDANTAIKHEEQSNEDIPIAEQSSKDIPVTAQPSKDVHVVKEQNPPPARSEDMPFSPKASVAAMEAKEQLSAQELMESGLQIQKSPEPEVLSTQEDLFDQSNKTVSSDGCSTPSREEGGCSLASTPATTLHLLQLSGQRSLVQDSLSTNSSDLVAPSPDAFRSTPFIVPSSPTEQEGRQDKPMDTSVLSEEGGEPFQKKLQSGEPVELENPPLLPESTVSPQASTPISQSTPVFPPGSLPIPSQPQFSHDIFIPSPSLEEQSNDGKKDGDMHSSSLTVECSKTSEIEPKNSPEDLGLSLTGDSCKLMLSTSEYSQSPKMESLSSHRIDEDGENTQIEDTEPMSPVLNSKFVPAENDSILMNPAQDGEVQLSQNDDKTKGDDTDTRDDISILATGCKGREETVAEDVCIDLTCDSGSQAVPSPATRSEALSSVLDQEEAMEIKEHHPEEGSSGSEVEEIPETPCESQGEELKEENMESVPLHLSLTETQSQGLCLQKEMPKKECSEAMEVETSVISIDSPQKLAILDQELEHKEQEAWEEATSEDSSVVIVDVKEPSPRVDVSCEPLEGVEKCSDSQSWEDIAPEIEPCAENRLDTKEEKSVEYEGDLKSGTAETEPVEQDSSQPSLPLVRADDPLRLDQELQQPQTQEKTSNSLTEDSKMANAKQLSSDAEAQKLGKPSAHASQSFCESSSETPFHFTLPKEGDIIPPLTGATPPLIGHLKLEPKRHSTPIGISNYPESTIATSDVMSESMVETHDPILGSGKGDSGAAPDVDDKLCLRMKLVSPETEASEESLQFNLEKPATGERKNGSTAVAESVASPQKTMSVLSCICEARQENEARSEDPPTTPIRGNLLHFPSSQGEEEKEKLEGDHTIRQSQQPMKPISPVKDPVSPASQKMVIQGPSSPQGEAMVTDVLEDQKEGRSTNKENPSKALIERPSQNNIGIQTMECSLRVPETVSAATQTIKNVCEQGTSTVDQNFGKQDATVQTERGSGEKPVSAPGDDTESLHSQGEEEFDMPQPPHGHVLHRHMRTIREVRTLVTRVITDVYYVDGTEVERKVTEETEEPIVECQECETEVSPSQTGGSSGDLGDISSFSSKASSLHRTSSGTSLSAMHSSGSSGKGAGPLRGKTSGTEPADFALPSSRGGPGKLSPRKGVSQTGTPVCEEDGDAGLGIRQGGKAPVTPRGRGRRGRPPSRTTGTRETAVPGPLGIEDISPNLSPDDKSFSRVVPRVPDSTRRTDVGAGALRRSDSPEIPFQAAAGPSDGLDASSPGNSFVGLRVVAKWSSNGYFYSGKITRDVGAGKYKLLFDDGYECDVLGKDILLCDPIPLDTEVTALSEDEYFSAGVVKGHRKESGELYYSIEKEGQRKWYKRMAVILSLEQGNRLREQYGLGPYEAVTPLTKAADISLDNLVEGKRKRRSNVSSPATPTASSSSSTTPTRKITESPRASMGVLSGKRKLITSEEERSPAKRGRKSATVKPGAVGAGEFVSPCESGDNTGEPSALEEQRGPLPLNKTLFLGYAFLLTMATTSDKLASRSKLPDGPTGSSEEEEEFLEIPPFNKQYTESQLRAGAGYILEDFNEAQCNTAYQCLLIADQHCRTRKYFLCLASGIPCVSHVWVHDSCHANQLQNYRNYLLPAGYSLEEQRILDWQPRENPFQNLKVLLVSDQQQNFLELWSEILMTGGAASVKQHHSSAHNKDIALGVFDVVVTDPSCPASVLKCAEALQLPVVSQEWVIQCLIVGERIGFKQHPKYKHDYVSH

binding: no binding
B1: endogenous GMCL1, HEK293T (protein, UniProt Q96IK5 1-515)
chain: MGSLSSRVLRQPRPALAQQAQGARAGGSARRPDTGDDAAGHGFCYCAGSHKRKRSSGSFCYCHPDSETDEDEEEGDEQQRLLNTPRRKKLKSTSKYIYQTLFLNGENSDIKICALGEEWSLHKIYLCQSGYFSSMFSGSWKESSMNIIELEIPDQNIDVEALQVAFGSLYRDDVLIKPSRVVAILAAACLLQLDGLIQQCGETMKETVNVKTVCGYYTSAGTYGLDSVKKKCLEWLLNNLMTHQNVELFKELSINVMKQLIGSSNLFVMQVEMDIYTALKKWMFLQLVPSWNGSLKQLLTETDVWFSKQRKDFEGMAFLETEQGKPFVSVFRHLRLQYIISDLASARIIEQDAVVPSEWLSSVYKQQWFAMLRAEQDSEVGPQEINKEELEGNSMRCGRKLAKDGEYCWRWTGFNFGFDLLVTYTNRYIIFKRNTLNQPCSGSVSLQPRRSIAFRLRLASFDSSGKLICSRTTGYQILTLEKDQEQVVMNLDSRLLIFPLYICCNFLYISPEKKN

— doi:10.1101/2025.03.18.643855
